Reference: PubChem BioAssay AID488837 (National Center for Advancing Translational Sciences (NCATS), 2010)
Hit rate of the full screen: of about 330,000 compounds, about 20 (0.006%) were called active. The inconclusive results got no clear call from the source; some entries with a clear call stand among them for comparison. The call rests on the fitted dose curve; in most records, active means well fitted inhibition curve with a large enough effect; inconclusive means small, poorly fitted or top-dose-only effect, or effect the other way; inactive means flat fitted curve, though single readings scatter. Potencies of inconclusive entries are doubtful fits and often do not repeat.

Chains of the proteins cited; added tags and fusions are not shown. Lines headed by an entry give the natural chain unless they say otherwise; changes in a name come on top.
UniProt O00167: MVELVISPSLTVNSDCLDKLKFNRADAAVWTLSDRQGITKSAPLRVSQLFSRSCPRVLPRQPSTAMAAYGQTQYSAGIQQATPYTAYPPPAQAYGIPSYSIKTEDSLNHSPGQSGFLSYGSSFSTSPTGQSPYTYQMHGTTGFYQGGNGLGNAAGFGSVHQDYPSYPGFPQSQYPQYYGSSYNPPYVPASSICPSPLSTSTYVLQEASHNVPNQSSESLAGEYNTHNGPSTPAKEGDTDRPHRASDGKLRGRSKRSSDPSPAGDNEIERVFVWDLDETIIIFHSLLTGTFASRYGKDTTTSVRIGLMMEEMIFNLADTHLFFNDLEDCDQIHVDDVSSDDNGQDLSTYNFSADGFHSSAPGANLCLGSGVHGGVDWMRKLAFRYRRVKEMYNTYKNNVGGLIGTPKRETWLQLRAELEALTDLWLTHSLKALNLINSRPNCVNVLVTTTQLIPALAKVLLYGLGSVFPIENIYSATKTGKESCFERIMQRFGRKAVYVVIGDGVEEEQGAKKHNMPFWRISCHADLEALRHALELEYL

molecular target: Protein phosphatase EYA2 (Homo sapiens) (UniProt O00167); test: qHTS Assay for Inhibitors of the Phosphatase Activity of Eya2; details: recombinant Eya2, OMFP fluorescence dephosphorylation (OMFP is methylfluorescein phosphate); activity, negative = inhibition: at 76.9 µM (top of the series) unless noted
Method in brief: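 Eya2 (0.2 uM) preincubated 10 min at ambient with compound, then OMFP substrate added at 50 uM; 10 min reaction in 50 mM HEPES pH 7.5, 50 mM NaCl, 5 uM MgCl2, 0.05% BSA, 1 mM DTT. Fluorescence read at Ex 485/Em 525 nm.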
On the % scale 0 is the no-effect control and ±100 the full control effect; potency means the concentration at half of the fitted maximal effect.

| SMILES | Potency | activity, negative = inhibition |
| --- | --- | --- |
| CCOc1cccc(CN2CCC(CCC(=O)NC3CC3)CC2)c1O | inconclusive: 22.4 µM [inhibitor, single point] | – |
| CCc1ccc(-c2cc(C)no2)cc1S(=O)(=O)N1CCN(c2ccccc2)CC1 | inactive | – |
| COc1ccccc1C(=O)NCCC(=O)Nc1nc2ccccc2[nH]1 | inactive | – |
| Cn1c(=O)c(C(=O)COC(=O)c2cc(-c3ccco3)nc3ccccc23)c(N)n(Cc2ccccc2)c1=O | inactive | – |
| O=[N+]([O-])c1ccc(N2CCN(c3ccccc3)CC2)nc1 | inconclusive: 112 µM [inhibitor, single point] | – |
| Cc1ccc(CN(Cc2cccnc2)C(=S)Nc2cc(Cl)ccc2C)cc1 | inconclusive: 100 µM [inhibitor, single point] | – |
| O=C(NCCc1ccccc1)c1ccc2c(=O)[nH]c3c(C(=O)NCC4CCCO4)sc(=S)n3c2c1 (centres undefined) | inactive | – |
| CC(C)c1ccc(CN2CCN(C(=O)CSc3nnnn3C3CC3)CC2)cc1 | inactive | – |
| CCN(CC)c1ccc2c(Cl)c(Br)c(=O)oc2c1 | inconclusive: 25.1 µM [activator, partial curve] | – |
| COC(=O)c1ccc(S(=O)(=O)N2CCCN(Cc3cccc(Br)c3F)CC2)n1C | inconclusive: 447 µM [inhibitor, partial curve, poor fit] | – |
| Cn1c2ccccc2c2n[nH]c(=O)nc21 | inactive | – |
| O=C(CCC(=O)Nc1ccc(Cl)cc1Cl)N/N=C/c1ccc([N+](=O)[O-])o1 | inactive | – |
| Cc1ccccc1NC(=O)C1CCCN(c2nnc(N3CCCC3=O)s2)C1 (centres undefined) | inconclusive: 100 µM [inhibitor, single point] | – |
| Oc1ccccc1O | inactive | – |
| CN(C)c1cc(-c2ccccc2)nc(-c2ccccc2)n1 | inactive | – |
| COc1ccccc1Sc1ccccc1/C=N/NC(N)=O | inconclusive: 100 µM [inhibitor, single point] | – |
| O=C(O)Cc1sc(Nc2ccccc2)nc1-c1cccs1 | inconclusive: 100 µM [inhibitor, single point] | – |
| COc1cccc(CNC(=O)C2Cc3ccccc3CN2C(C)=O)c1 (centres undefined) | inconclusive: 25.1 µM [inhibitor, single point] | – |
| COCCNC(=O)/C(C#N)=C/c1cccs1 | inconclusive: 25.1 µM [inhibitor, single point] | – |
| C/C(=N/NC(=O)c1cc(-c2cccc([N+](=O)[O-])c2)n[nH]1)c1cccc(O)c1 | inactive | – |
| O=C(Cn1cccc(C(F)(F)F)c1=O)c1ccc(Cl)cc1 | inconclusive: 10 µM [inhibitor, partial curve, poor fit] | – |
| Cc1cc(/C=C2\SC(=S)N(Cc3ccco3)C2=O)c(C)n1-c1ccccc1 | inactive | – |
| CCOC(=O)C1CCN(c2ncnc3cc(OC)c(OC)cc23)CC1 | inconclusive: 20 µM [inhibitor, single point] | – |
| O=c1[nH]cnc2c1C(c1ccccc1)c1c(nc[nH]c1=O)O2 | inconclusive: 28.2 µM [inhibitor, single point] | – |
| COc1ccccc1-c1cn(-c2ccccc2)c(=S)[nH]1 | inactive | – |

3 structures already listed, sorted by molar mass, largest number first.

| SMILES | Potency | activity, negative = inhibition |
| --- | --- | --- |
| COc1ccccc1Sc1ccccc1/C=N/NC(N)=O | inconclusive: 100 µM [inhibitor, single point] | – |
| COCCNC(=O)/C(C#N)=C/c1cccs1 | inconclusive: 25.1 µM [inhibitor, single point] | – |
| Oc1ccccc1O | inactive | – |

(continued)

| SMILES | Potency | activity, negative = inhibition |
| --- | --- | --- |
| COC(=O)c1c(C)[nH]c(C=O)c1-c1ccccc1 | inactive | – |
| O=C(Nc1ccc(F)cc1Cl)c1ccc2c(=O)n3c(nc2c1)CCCCC3 | inconclusive: 100 µM [inhibitor, single point] | – |
| CC(C)N(Cc1ccccc1)C(=O)COc1ccccc1 | inconclusive: 100 µM [inhibitor, single point] | – |
| COc1ccc(Nc2ccc(C(N)=O)cc2[N+](=O)[O-])cc1 | inconclusive: 17.8 µM [inhibitor, single point] | – |
| COc1ccc(OCC(=O)Nc2ccc(NC(=O)c3cccs3)c(OC)c2)cc1 | inactive | – |
| COc1ccc(-n2nnnc2-c2cnc3cc4c(cc3c2C)OCO4)cc1 | – | inconclusive: -32.4% [inhibitor] |
| O=C(c1ccc(Cn2cc(Cl)c([N+](=O)[O-])n2)cc1)N1CCN(Cc2ccccc2)CC1 | inconclusive: 112 µM [inhibitor, single point] | – |
| CN(C[C@H](Cc1ccccc1)N(C[C@@H](Cc1cccc2ccccc12)N(CCc1ccccc1)N=O)N=O)N=O | inconclusive: 20 µM [inhibitor, single point] | – |
| CCc1cc(C(=O)NCCN(C)C)cs1 | inactive | – |
| O=C(COC(=O)c1cc(NS(=O)(=O)c2cccs2)ccc1O)Nc1ccccc1 | inconclusive: 100 µM [inhibitor, single point] | – |
| NS(=O)(=O)c1ccc(NC2=CC(c3ccc([N+](=O)[O-])cc3)N(c3ccc(S(N)(=O)=O)cc3)C2=O)cc1 (centres undefined) | inconclusive: 126 µM [inhibitor, partial curve, poor fit] | – |
| Oc1ccc[n+](CC(O)c2ccccc2)c1 (centres undefined) | inactive | – |
| CC1(C)CN(c2ccc(-c3ccnc4ncnn34)cc2)C1=O | inconclusive: 224 µM [inhibitor, partial curve, poor fit] | – |
| COc1ccccc1CN1CC(C(=O)NCCc2ccccc2Cl)CCC1=O (centres undefined) | inconclusive: 22.4 µM [inhibitor, single point] | – |
| O=C(/C=C\Nc1ccc2c(c1)OCO2)c1ccccn1 | inconclusive: 1120 µM [inhibitor, single point] | – |
| COc1ccc2ccccc2c1CNc1nnnn1C | inconclusive: 112 µM [inhibitor, single point] | – |
| Cc1cnc(C(=O)OCC(=O)Nc2ccc(Br)c(C)c2)cn1 | inconclusive: 25.1 µM [inhibitor, single point] | – |
| O=C(Nc1ccc(F)cc1)c1ccc(-n2ccnc2)nc1 | inconclusive: 100 µM [inhibitor, partial curve] | – |
| CC(C)CC(=O)Nc1ccnn1C1CCN(C(=O)c2ccc(F)cc2Cl)CC1 | inactive | – |
| CCCCNc1c2c3c(cccc3n(C)c1=O)C(=O)c1ccccc1-2 | inconclusive: 31.6 µM [activator, partial curve] | – |
| Cc1cc(NC(=O)COC(=O)CCNS(=O)(=O)c2cccc(C(F)(F)F)c2)no1 | inconclusive: 112 µM [inhibitor, single point] | – |
| COC(=O)Cc1c(C)c2ccc(OC(C)C)cc2oc1=O | inactive | – |
| O=C(c1cnn(-c2ccccc2)c1)c1cc(F)ccc1O | inconclusive: 22.4 µM [inhibitor, single point] | – |
| Cc1ccc(-c2cnn3c(N4CCOCC4)cc(C)nc23)cc1 | inactive | – |
| COc1cc(OC)c(OC)cc1CN1CCN(c2ccc(F)cc2)CC1 | inconclusive: 79.4 µM [inhibitor, partial curve, poor fit] | – |

| SMILES | Potency | activity, negative = inhibition |
| --- | --- | --- |
| COc1ccc(/C=C2\SC(=S)N(CC(=O)OCC(=O)Nc3cc(Cl)cc(Cl)c3)C2=O)cc1 | inactive | – |
| COc1ccc(CCNC(=O)C2CCN(S(=O)(=O)c3ccc(F)cc3)CC2)cc1 | inconclusive: 20 µM [inhibitor, single point] | – |
| N#C/C(=C\c1c(Cl)cccc1Cl)c1nc2ccccc2o1 | inactive | – |
| CC1(C)Cc2c(ccc3ccccc23)/C(=C/C#N)N1 | inactive | – |
| CC(OC(=O)CCC(=O)c1cccs1)C(=O)NC1CCCCC1C (centres undefined) | inconclusive: 126 µM [inhibitor, partial curve, poor fit] | – |
| O=C(Nc1cccc(-n2cnnn2)c1)c1ccc(Cl)cc1Cl | inconclusive: 141 µM [inhibitor, partial curve] | – |
| C=CCOc1nc2c(c(=O)n(C)c(=O)n2C)n1Cc1ccc(Cl)cc1Cl | inconclusive: 11.2 µM [inhibitor, partial curve] | – |
| COc1ccc(N(CC(=O)NCCSCc2ccc(Cl)cc2)S(C)(=O)=O)cc1Cl | inconclusive: 112 µM [inhibitor, single point] | – |
| CSc1nnc2c(n1)OC(C)=Nc1ccccc1-2 | inactive | – |
| Cc1ccc(C(=O)Nc2nnc(S(=O)(=O)N3CCC(C)CC3)s2)cc1 | inconclusive: 15.8 µM [inhibitor, single point] | – |
| Cc1ccn2c(NCc3ccccc3)c(-c3cccs3)nc2c1 | inactive | – |
| CCOC(=O)/C(=N\Nc1ncnc2ccccc12)c1ccc(OC)cc1 | inactive | – |
| CC(C)Cc1nc(N2CCCCC2)c(C#N)c2c1CCC2 | inactive | – |
| COCCCNCCCCOc1ccc(Br)cc1C | inactive | – |
| COc1ccc(OCC(O)CN2CCN(c3ccc(Cl)cc3)CC2)cc1 (centres undefined) | inconclusive: 200 µM [inhibitor, partial curve, poor fit] | – |
| O=C(CO/N=C/c1ccc(Cl)cc1Cl)NNC(=O)c1ccc(Cl)cc1Cl | inconclusive: 28.2 µM [inhibitor, partial curve] | – |
| CCOc1ccc(-c2nnc3ccc(SCC(=O)NCc4ccco4)nn23)cc1 | inconclusive: 20 µM [inhibitor, single point] | – |
| O=C(N/N=C/c1cc(Br)ccc1O)C(c1ccncc1)N1CCOCC1 (centres undefined) | inactive | – |
| O=C(NC(=O)c1ccc(Cl)cc1)Nc1ccc(-c2cnco2)cc1 | inconclusive: 22.4 µM [inhibitor, single point] | – |
| Cc1c(CC(=O)O)c(=O)oc2c(C)c(OCc3c(F)cccc3Cl)ccc12 | inconclusive: 100 µM [inhibitor, single point] | – |
| Cc1ccc(-c2csc(N3C(=N)SCC3=O)n2)cc1 | inconclusive: 100 µM [inhibitor, single point] | – |
| CCc1ccccc1NC(=O)c1ccc2c(c1)CCN2S(C)(=O)=O | inconclusive: 17.8 µM [inhibitor, single point] | – |
| CN(C)S(=O)(=O)c1ccc(N2CCCC2)c(C(=O)NCc2ccccc2)c1 | inactive | – |
| CCN(CC)c1ccc2cc(-c3nc(-c4ccc(OC)cc4)cs3)c(=O)oc2c1 | inconclusive: 3.98 µM [activator, full curve] | – |
